# In the supplement of paper PMC3334620:
# The full ranking holds about 33,000 sequences; the median of “E-score (-0.5 to 0.5)” is about -0.015, and the highest 2% start at about 0.3. Some of the results follow.
# Target: T1, Abf1 (UniProt P14164)
# T1 sequence: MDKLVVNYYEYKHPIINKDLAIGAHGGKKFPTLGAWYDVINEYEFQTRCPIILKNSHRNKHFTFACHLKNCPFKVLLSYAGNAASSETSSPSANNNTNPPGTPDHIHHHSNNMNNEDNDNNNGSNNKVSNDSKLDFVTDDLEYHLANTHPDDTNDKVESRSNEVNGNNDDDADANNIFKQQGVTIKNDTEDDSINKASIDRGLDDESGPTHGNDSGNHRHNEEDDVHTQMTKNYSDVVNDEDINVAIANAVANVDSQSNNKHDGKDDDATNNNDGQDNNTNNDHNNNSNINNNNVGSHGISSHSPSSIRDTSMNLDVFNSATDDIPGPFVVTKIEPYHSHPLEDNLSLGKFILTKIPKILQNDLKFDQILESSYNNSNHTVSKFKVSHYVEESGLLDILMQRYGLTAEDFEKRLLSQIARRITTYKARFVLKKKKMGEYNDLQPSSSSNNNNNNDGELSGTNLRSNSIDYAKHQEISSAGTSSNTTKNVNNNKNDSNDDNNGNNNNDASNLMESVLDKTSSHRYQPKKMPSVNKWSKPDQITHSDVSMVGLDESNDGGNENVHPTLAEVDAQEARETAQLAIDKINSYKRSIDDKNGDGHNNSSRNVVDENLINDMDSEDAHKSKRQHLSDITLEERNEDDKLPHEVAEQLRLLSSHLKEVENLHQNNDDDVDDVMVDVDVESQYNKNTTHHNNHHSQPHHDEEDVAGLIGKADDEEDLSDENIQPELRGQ
# Test: PBM E-score (8-mer binding enrichment) (E-score (-0.5 to 0.5)); higher = stronger / more preferred TF binding
# Conditions: protein concentration: 200 nM; construct: GST-full length
# Summary of the method: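 GST-tagged yeast TFs (full-length or DNA-binding domain) were made by PURExpress in vitro transcription/translation and applied at about 100-200 nM to universal all-10-mer Agilent arrays. The arrays were made double-stranded by primer extension, on fresh or once-stripped slides. Bound protein was detected with fluorescent anti-GST, and scans were normalised with masliner. Each ungapped eight-base word, pooled with its reverse complement, received an E-score (modified Wilcoxon-Mann-Whitney statistic) from the Universal PBM Analysis Suite.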
row,Sequence,PBM E-score
1,CAGATTTC,-0.127
2,GGCTTTCA,0.116
3,GTTTCACA,-0.0433
4,CGTTGGAG,0.0605
5,CGGATTAC,0.091
6,CCTAGAGC,-0.219
7,CACGCCTA,0.0363
8,ACGCACAA,-0.146
9,AGTCAAAG,-0.0222
10,AATGAAGG,-0.0899
11,GCCGCCCA,-0.201
12,GACTGCCA,-0.0698
13,ACGTGCCC,0.0374
14,AACAAACG,-0.0162
15,GCTTCCTA,0.00478
16,AGTCTGGA,-0.205
17,CCTCGATA,0.0399
18,ATGAAAGC,0.132
19,CAGAGAAC,-0.0886
20,TTAGGGAA,0.0813
21,AGGCACGA,0.11
22,TCTCTACA,-0.00964

row,Sequence,PBM E-score
1,GCGGTCCC,-0.0918
2,GACTAGTA,-0.0512
3,ACCCCCCG,-0.297
4,ACTATTTC,0.13
5,AATCAGAA,-0.0931
6,AATTTGAG,-0.0599
7,ATCTCCAT,0.0303
8,GGACTGAC,-0.252
9,ATTTATTA,0.309
10,TTTGAAAA,0.111
11,ACAAGCTC,-0.252
12,CGAAGGAC,0.0868
13,GGCCAGCC,-0.21
14,CACTGTCG,0.0343
15,TGGACAAA,0.0107
16,CGTTGCAC,0.0663
17,GATATCAC,0.414
18,CCGTTTCG,0.135
19,CGCACCGA,-0.137
20,ACAGTTCG,0.00858
21,AATTCGAC,-0.189
22,CCACTGAC,-0.179

# 3 entries from above, as tab-separated lines:
row	Sequence	PBM E-score
13	GGCCAGCC	-0.21
14	CACTGTCG	0.0343
15	TGGACAAA	0.0107

# The list goes on:

row,Sequence,PBM E-score
1,ACCCTACC,-0.0929
2,TACGATGA,0.293
3,AGAGCGTA,-0.176
4,CTTGTGCA,-0.034
5,CCTGTAGC,-0.368
6,GCCTTAAC,-0.156
7,CTCTGGGC,-0.21
8,CGAGGCGC,0.141
9,AACACCGG,-0.0591
10,AACCGGGG,-0.212
11,AGGGGTAA,-0.167
12,AGTGAGCA,-0.0139
13,ATCGAGAG,-0.144
14,CGACGCGC,0.108
15,CGAACCGC,0.0253
16,TATCATAA,0.217
17,GACGCGCA,-0.133
18,AATGACGC,0.106
19,TGTGAAAA,0.213
20,ACATATAG,0.0658
21,AAGGAACT,-0.184
22,CTCCACCC,-0.317

# 3 entries from above, with tabs.
row	Sequence	PBM E-score
18	AATGACGC	0.106
19	TGTGAAAA	0.213
20	ACATATAG	0.0658

# Going on with the list.

row,Sequence,PBM E-score
1,GATTGCAC,0.19
2,CGAATTGA,0.126
3,AAGATGGT,-0.107
4,ACAGGACT,-0.152
5,GATAGATA,0.0466
6,GATCAGGA,0.0156
7,ACGTAAAG,-0.0198
8,AAACGACA,0.321
9,CCTCTGCG,-0.123
10,AGTATTGA,0.0838
11,CGCGTGTA,0.0277
12,ACGCGTCG,0.12
13,CGATTTTC,0.155
14,AGATCTGA,-0.0836
15,TCTGTACA,-0.0409
16,CCTAGTCC,-0.188
17,GTCGCTCA,0.191
18,AAGGCGGG,-0.114
19,CTCAGCCC,-0.0568
20,CATTCTCC,0.0969
